Out of some 320,000 compounds screened, about 22,000 (6.9%) were called active. Inconclusive means that the source gave no clear call. Such entries were picked first, then a sample of the others. The call rests on the fitted dose curve; in most records, active means well fitted inhibition curve with a large enough effect; inconclusive means small, poorly fitted or top-dose-only effect, or another doubt; inactive means no such curve, though single readings can be large or run the other way. Where the call is inconclusive, the potency comes from a doubtful curve fit.
Assay: Primary qHTS for delayed death inhibitors of the malarial parasite plastid, 96 hour incubation
Conditions: P. falciparum luciferase reporter growth; series mostly up to 28.7 µM
Procedure, shortened: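 Readout is luminescence from an integrated firefly luciferase in P. falciparum. Red cells, 2% hematocrit and 0.05% parasitemia final, were cultured with compound through two parasite generations (96 hours) at 37 C, 5% CO2.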
Potency means the concentration at half of the fitted maximal effect.

| Compound | Potency |
| --- | --- |
| O=C(CSc1nnc(COc2ccccc2)n1Cc1ccco1)c1ccc(F)cc1 | active: 13.1 µM |
| COC(=O)C1=C(c2cccc(C#N)c2)C[C@@H]2CC[C@H]1N2C(=O)NC1CCCCC1 | inactive |
| CC(OC(=O)c1ccccc1C(=O)N(C)c1ccccc1)C(=O)Nc1ccccc1[N+](=O)[O-] (centres undefined) | inconclusive: 13.1 µM [inhibitor, partial curve, poor fit] |
| C[C@H](C(=O)CC(=O)OC(C)(C)C)[C@H](O)c1ccc(C(F)(F)F)cc1 | inconclusive: 3.29 µM [inhibitor, partial curve, poor fit] |
| Cc1ccc(S(=O)(=O)CC2CSc3nc(N)cc(=O)n32)cc1 (centres undefined) | inconclusive: 10.4 µM [inhibitor, single point] |
| COc1cc(-c2c(-c3ccsc3)sc3ccccc23)cc(OC)c1OC | inconclusive: 10.4 µM [inhibitor, single point] |
| O=C(NC1CCN(S(=O)(=O)c2cccc([N+](=O)[O-])c2)CC1)C1CCCCC1 | inactive |
| Cc1c(C)c2ccc(OCC(=O)NC3CCN(Cc4ccccc4)CC3)c(C)c2oc1=O | inconclusive: 10.4 µM [inhibitor, single point] |
| CCc1cccc(NS(=O)(=O)c2ccc(-n3cccn3)cc2)c1 | active: 13.1 µM |
| COc1cc(/C=N/N=C2/NC(=O)C(Cc3ccc(F)cc3)S2)ccc1O (centres undefined) | inconclusive: 8.28 µM [inhibitor, partial curve, poor fit] |
| Cc1cc2cc(CNC(=O)c3ccc(S(=O)(=O)N4CCOCC4)cc3)ccc2n1C | inconclusive: 11.7 µM [inhibitor, partial curve] |
| COc1cc(/C=N/NC(=S)Nc2cccnc2)cc(OC)c1O | inconclusive: 18.5 µM [inhibitor, single point] |
| Cc1ccc2c(C)nc(Nc3nc(CSc4nc5ccccc5[nH]4)cc(=O)[nH]3)nc2c1 | inconclusive: 4.65 µM [inhibitor, partial curve, poor fit] |
| O=c1cnn(-c2ccccc2)c(-c2ccccc2)c1 | inactive |
| O=C(Nc1ccc(S(=O)(=O)Nc2ncccn2)cc1)c1ccccc1 | active: 1.17 µM |
| COc1ccc(-c2nnc(SCC(=O)Nc3cc(C)on3)o2)cc1 | inconclusive: 3.7 µM [inhibitor, partial curve, poor fit] |
| CSc1ccccc1NC(=O)c1onc(C)c1Cl | inconclusive: 18.5 µM [inhibitor, partial curve, poor fit] |
| Nc1nonc1-n1nnc(C(=O)N/N=C/c2cccs2)c1-c1ccc2c(c1)OCO2 | active: 0.294 µM |
| COC(=O)c1ccc(NC(=O)CSc2nncn2C)cc1 | inactive |
| CCc1ccc(NC(=O)CSc2ccc(-c3ccccn3)nn2)cc1 | inconclusive: 11.7 µM [inhibitor, single point] |
| Cc1csc(NC(=O)CCc2c(C)nc3cc(-c4ccc(Cl)cc4)nn3c2C)n1 | active: 14.7 µM |
| OCC(Cc1ccccc1)Nc1c2ccccc2nc2ccccc12 (centres undefined) | inconclusive: 2.33 µM [inhibitor, full curve] |
| COC(=O)c1cc(-c2ccc(S(=O)(=O)N3CCCCC3)cc2)c(C(F)(F)F)s1 | inconclusive: 14.7 µM [inhibitor, single point] |

| Compound | Potency |
| --- | --- |
| COc1ccc(NC(=O)c2ccc3c(SCC(=O)O)c4c(nc3c2)CCCC4)c(OC)c1 | inconclusive: 0.0329 µM [inhibitor, full curve, poor fit] |
| COC(=O)Oc1nsnc1N1CCOCC1 | inconclusive: 13.1 µM [inhibitor, single point] |
| CCOC(=O)c1c(/N=C/c2cc([N+](=O)[O-])ccc2O)sc(C)c1C | active: 9.28 µM |
| CCOc1ccccc1NC(=O)c1cc(C(=O)c2cc(Br)ccc2O)coc1=N | inconclusive: 18.5 µM [inhibitor, single point] |
| O=C(NCCSCc1ccc(Cl)cc1Cl)c1ccc(CN2CCOCC2)cc1 | inconclusive: 0.0828 µM [inhibitor, full curve, poor fit] |
| O=C(NC(=S)NC1CCCc2ccccc21)c1ccco1 (centres undefined) | inconclusive: 10.4 µM [inhibitor, single point] |
| O=C(Nc1ccc(NC(=O)C2CCCCC2)nc1)c1cccc(F)c1 | inactive |
| CC(=O)NC1=NN(C(C)=O)C(c2ccc(C)cc2)S1 (centres undefined) | inconclusive: 11.7 µM [inhibitor, single point] |
| COc1ccc(/C=C/C(=O)Oc2cccc(/C=N/NC(=O)Cc3ccc(Br)cc3)c2)cc1 | inconclusive: 2.62 µM [inhibitor, full curve, poor fit] |
| Cc1ccc2c(c1)C1CN(C)CCC1N2C(=O)/C=C/c1ccc2c(c1)OCO2 (centres undefined) | inconclusive: 11.7 µM [inhibitor, single point] |
| CCCCn1c(N)c(N(CC)C(=O)CSCC(=O)Nc2ccc(OC)cc2)c(=O)[nH]c1=O | inactive |
| CCOC(=O)c1ccccc1NC(=O)CSc1nc2ccccc2c(=O)[nH]1 | inactive |
| O=S(=O)(/N=C(/c1ccccc1)N1CCCCC1)c1ccccc1 | inconclusive: 9.28 µM [inhibitor, partial curve, poor fit] |
| COc1ccc(CC(=O)NCC2CCCN(Cc3ccc(OC(F)(F)F)cc3)C2)cc1 (centres undefined) | inconclusive: 2.62 µM [inhibitor, single point] |
| O=C(CCN1C(=O)/C(=C/c2ccccc2F)SC1=S)Nc1cccnc1 | inconclusive: 18.5 µM [inhibitor, single point] |
| C/C=C/C1=CC(=O)C[C@H](c2ccc(F)cc2)C1 | inconclusive: 11.7 µM [inhibitor, single point] |
| COC(=O)c1ccc(CSc2nc(C)nc3sc(C)c(C)c23)o1 | inactive |
| CN1CCN(c2c[nH]c(=O)[nH]c2=O)CC1 | inconclusive: 10.4 µM [inhibitor, single point] |
| COc1cc(C(c2nnnn2C2CCCC2)N2CCN(C(=O)c3ccco3)CC2)cc(OC)c1OC (centres undefined) | inactive |
| CN(C)CCC=C1c2ccccc2CCc2ccccc21 | inconclusive: 18.5 µM [inhibitor, single point] |
| NNC(=O)c1nc[nH]c1C(=O)Nc1ccccc1 | active: 10.4 µM |
| CC(=O)c1ccc2c(c1)C1C(Cl)C(Sc3ccccc3[N+](=O)[O-])CC1C(c1ccccc1[N+](=O)[O-])N2 (centres undefined) | inconclusive: 14.7 µM [inhibitor, partial curve, poor fit] |
| CN(C)S(=O)(=O)Oc1cccc(C(=O)Nc2cccc(Cl)c2)c1 | inactive |

| Compound | Potency |
| --- | --- |
| CC(C)Oc1ccc(C(=O)NC2CCN(Cc3ccccc3)CC2)cc1 | inactive |
| CCCn1cc(SCC(=O)NCc2ccco2)c2ccccc21 | active: 6.57 µM |
| O=C(CNS(=O)(=O)c1ccccc1)NCC(=O)OCc1ccc(Br)cc1 | inconclusive: 18.5 µM [inhibitor, single point] |
| N#CC1(NC(=O)CN2c3cccc4cccc(c34)S2(=O)=O)CCCCC1 | inconclusive: 2.33 µM [inhibitor, single point] |
| O=C1NCC(c2ccccc2)C1C(=O)N/N=C/c1ccc(Cl)s1 (centres undefined) | active: 7.38 µM |
| Cc1cc(C)nc(/N=C(\N)Nc2ccc(OCCC(C)C)cc2)n1 | inconclusive: 2.08 µM [inhibitor, single point] |
| Clc1ccc2nc(-c3ccccc3)c(CN3CCOCC3)n2c1 | inconclusive: 18.5 µM [inhibitor, single point] |
| COc1cccc(/C=N/NC(=O)C(C)n2nc(C)c([N+](=O)[O-])c2C)c1O (centres undefined) | inconclusive: 10.4 µM [inhibitor, single point] |
| O=C(CN1CCCc2ccccc21)N/N=C/c1ccc(F)cc1F | inconclusive: 18.5 µM [inhibitor, single point] |
| CCOc1c(C)cnc2c1c(=O)n(CC(=O)NCC1CCCO1)c(=O)n2C (centres undefined) | inactive |
| CCc1ccc(NC(=O)Cn2nnc(C(=O)NCc3cccs3)c2N)cc1 | inconclusive: 0.828 µM [inhibitor, partial curve] |
| O=C(NCC1CCCO1)c1ccc(N2CCCCC2)nc1 (centres undefined) | inconclusive: 18.5 µM [inhibitor, single point] |
| Cc1ccc2c(c1)N(CC(=O)NCc1ccco1)C(=O)CO2 | inconclusive: 13.1 µM [inhibitor, single point] |
| COc1ccc(NC(=O)CC2(CC(=O)N3CCOCC3)CCCC2)cc1Cl | inconclusive: 2.94 µM [inhibitor, partial curve, poor fit] |
| Cc1ccc(NC(=O)C2CCN(S(=O)(=O)c3ccc4c(c3)OCCO4)CC2)c(O)c1 | active: 11.7 µM |
| COc1cc(CC(=O)Nc2sccc2C(N)=O)cc(OC)c1OC | inconclusive: 18.5 µM [inhibitor, single point] |
| O=C(COC(=O)c1cnccn1)NCCc1ccc(Cl)cc1 | inactive |
| COc1ccc(O)c(/C=N/N=C/c2cccc([N+](=O)[O-])c2)c1 | inconclusive: 18.5 µM [inhibitor, single point] |
| C#C[C@]1(O)CC[C@H]2[C@@H]3CCc4cc(OC5CCCC5)ccc4[C@H]3CC[C@@]21C | inconclusive: 12 µM [inhibitor, partial curve, poor fit] |
| CCN(CC)S(=O)(=O)c1ccc2oc(Nc3ccc(OC)cc3)nc2c1 | inconclusive: 18.5 µM [inhibitor, single point] |
| CC1C(=O)N2CCCc3cc(S(=O)(=O)NCCc4ccccc4)cc1c32 (centres undefined) | active: 2.08 µM |
| O=C(N/N=C/c1c[nH]c2ccc(Br)cc12)C1CC1 | inactive |
| COc1ccccc1CN1C(=O)C(=O)N(Cc2cccc(C)c2)C1=O | inconclusive: 11.7 µM [inhibitor, partial curve, poor fit] |

3 compounds already listed, ordered by formula weight, ascending:

| Compound | Potency |
| --- | --- |
| Cc1ccc(S(=O)(=O)CC2CSc3nc(N)cc(=O)n32)cc1 (centres undefined) | inconclusive: 10.4 µM [inhibitor, single point] |
| O=C1NCC(c2ccccc2)C1C(=O)N/N=C/c1ccc(Cl)s1 (centres undefined) | active: 7.38 µM |
| COc1ccc(/C=C/C(=O)Oc2cccc(/C=N/NC(=O)Cc3ccc(Br)cc3)c2)cc1 | inconclusive: 2.62 µM [inhibitor, full curve, poor fit] |

From PubChem BioAssay AID504834 (National Center for Advancing Translational Sciences (NCATS), 2011)
